# In patent publication US11123323B2, “Monoterpenes for treating respiratory disorders, in particular bronchopulmonary disorders” (Maria Clemetine Martin Klosterfrau Vertriebsqesellschaft MBH, priority 2008, dated 2021):
# Assay: Crossreactions with the INT-formazan measurement system, incubated without cells
# Conditions: beclometasone 10^−6 mol/l, 1,8-cineol 10^−5 mol/l, INTV 0.5 μg/ml
row,SMILES,crossreactions with the INT-formazan measurement method
1,C[C@H]1C[C@H]2[C@@H]3CCC4=CC(=O)C=C[C@]4(C)[C@@]3(Cl)[C@@H](O)C[C@]2(C)[C@@]1(O)C(=O)CO [beclometasone],could therefore be excluded
2,"CC12CCC(CC1)C(C)(C)O2 [1,8-cineol, 1,3,3-trimethyl-2-oxabicyclo-[2.2.2]-octane]",could therefore be excluded
